Measured values as given in PMC6925144, “A prospective compound screening contest identified broader inhibitors for Sirtuin 1” (Scientific Reports, 2019).
Over roughly 3,200 compounds, “TSA(with NAD+) / Primary screening (TSA) / delta Tm (K)” has its median near -0.04; the highest 2% begin near 0.37. Some of the results follow.

Chains of the proteins cited; added tags and fusions are not shown. Residues count along the entry.
UniProt Q96EB6, 2-747 limits assumed: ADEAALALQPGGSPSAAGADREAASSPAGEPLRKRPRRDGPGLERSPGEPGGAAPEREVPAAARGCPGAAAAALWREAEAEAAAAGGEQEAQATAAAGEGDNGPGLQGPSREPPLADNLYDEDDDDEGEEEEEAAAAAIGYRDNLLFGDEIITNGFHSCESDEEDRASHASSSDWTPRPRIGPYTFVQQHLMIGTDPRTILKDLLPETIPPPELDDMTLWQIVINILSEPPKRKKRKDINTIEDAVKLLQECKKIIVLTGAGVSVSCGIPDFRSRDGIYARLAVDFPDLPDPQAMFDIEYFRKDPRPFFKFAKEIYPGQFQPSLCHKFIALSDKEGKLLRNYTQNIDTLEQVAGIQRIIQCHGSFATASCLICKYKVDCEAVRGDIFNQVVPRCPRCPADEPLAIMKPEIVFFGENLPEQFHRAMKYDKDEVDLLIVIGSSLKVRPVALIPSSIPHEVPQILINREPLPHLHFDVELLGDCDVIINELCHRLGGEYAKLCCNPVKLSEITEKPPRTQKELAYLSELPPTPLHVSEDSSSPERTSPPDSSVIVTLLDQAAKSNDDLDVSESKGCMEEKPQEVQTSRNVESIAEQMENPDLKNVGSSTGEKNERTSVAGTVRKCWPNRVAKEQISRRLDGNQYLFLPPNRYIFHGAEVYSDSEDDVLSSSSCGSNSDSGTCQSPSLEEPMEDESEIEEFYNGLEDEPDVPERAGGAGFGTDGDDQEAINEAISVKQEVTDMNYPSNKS

target: NAD-dependent deacetylase Sirtuin 1 (human, UniProt Q96EB6); assay: primary screen, delta tm; set-up: single well (n = 1, as 'the same TSA'); details: 10 µM

| Structure (SMILES) | TSA(with NAD+) / Primary screening (TSA) / delta Tm (K) |
| --- | --- |
| NC(=O)CN1CCOc2cc(Br)c(Cl)cc21 | -0.13 |
| CN1C(=O)N(CC(=O)c2ccc3c(c2)CCCC3)C(=O)C12CCCCC2 | -0.11 |
| CCn1c(=O)c(C)nc2cc(C(=O)NCC(C(C)C)N(C)C)ccc21 (centres unmarked) | -0.08 |
| O=C(CN1C(=O)COc2ccccc21)Nc1cccc(S(=O)(=O)NCc2ccco2)c1 | -0.09 |
| CC(C)c1ccc(-c2nnc(NC(=O)/C=C/c3ccco3)s2)cc1 | -0.06 |
| O=C1NC(=S)NC(=O)C1=Cc1ccc(N2CCOCC2)cc1 | -0.11 |
| O=C(Nc1cnc2ccccc2c1)C(=O)N1CCCC1c1ccsc1 (centres unmarked) | -0.16 |
| O=C(c1ccc2c(=O)[nH]c(S)nc2c1)N1CCN(C(=O)c2cnccn2)CC1 | 0.06 |
| COc1ccc(N(C)S(=O)(=O)c2cccc(C(=O)Nc3ccc(Cl)cc3)c2)cc1 | 0.86 |
| NS(=O)(=O)c1ccc(CCNC(=O)COC(=O)C23CC4CC(C2)CC(c2ccccc2)(C4)C3)cc1 | 0.08 |
| O=C(NCc1cccc(OCc2ccccn2)c1)Nc1ccc(C(=O)N2CCCCCC2)cc1 | -0.03 |
| O=C(CN1CCN(Cc2ccsc2)CC1)Nc1ccc(N2CCCC2=O)cc1 | 0.03 |
| NC(=O)C1CCCN(c2ncnc3ccsc23)C1 (centres unmarked) | -0.01 |
| Cc1ccccc1C(=O)N1CCC(C(=O)Nc2ccc(N3CCN(Cc4ccccc4)CC3)cc2)CC1 | -0.01 |
| NC(=O)c1ccc(OCC(=O)NC(=O)NCc2cccs2)cc1 | -0.02 |
| COc1ccc2cc(C(=O)N(C)CC(=O)O)c(C)nc2c1 | -0.15 |
| CC1(c2ccc(C#N)cc2)NC(=O)N(CC(=O)Nc2ccc(C(N)=O)cc2)C1=O (centres unmarked) | -0.13 |
| COc1cccc(C(=O)C2=C(O)C(=O)N(CCCN3CCOCC3)C2c2cccs2)c1 (centres unmarked) | -0.01 |
| O=C(CSC1=N/C(=C\c2ccccc2)C(=O)N1c1ccc(F)cc1)c1c[nH]c2ccccc12 | -0.08 |
| COC(=O)CCC(=O)NNC(=O)CCC(=O)Nc1ccc(C)c(C)c1 | -0.16 |
| Cc1ccc(C(=O)C(OC(=O)c2c(C)noc2C)c2ccc(C)cc2)cc1 (centres unmarked) | -0.26 |
| NC(=O)c1ccc(NC(=O)c2ccccc2S(=O)(=O)N2CCCCC2)cc1 | -0.01 |
| Cc1nn(C)c2ncc(S(=O)(=O)N(C)c3ccc4ccccc4c3)cc12 | -0.01 |

| Structure (SMILES) | TSA(with NAD+) / Primary screening (TSA) / delta Tm (K) |
| --- | --- |
| CC(NC(=O)COC(=O)c1ccc2c(c1)S(=O)(=O)c1ccccc1C2=O)C12CC3CC(CC(C3)C1)C2 (centres unmarked) | 0.01 |
| NCc1nc2c(cnn2-c2ccccc2)c(=O)[nH]1 | -1.78 |
| O=C1/C(=C\c2cc(Br)cc(Br)c2O)CC/C1=C\c1cc(Br)cc(Br)c1O | 0.19 |
| O=C(NCc1ccc[nH]1)C(=O)Nc1ccc2c(c1)CCC2 | -0.05 |
| CCn1cnc2c(N3CC4CCCCCC43)ncnc21 (centres unmarked) | -0.09 |
| Cc1ccc(NC(=O)c2ccc(Cl)nc2Cl)cc1F | -0.01 |
| COc1ccc(CCNC(=O)/C=C/c2ccc3ccccc3n2)cc1OC | -0.04 |
| N=C1c2ccccc2CN1c1ccc(-c2ccc(N3Cc4ccccc4C3=N)cc2)cc1 | -0.03 |
| Cc1nnc(CN2CCN(CC(O)COCc3ccco3)CC2)n1C (centres unmarked) | -0.13 |
| CCOc1ccc(C2C(C(=O)/C=C/c3ccco3)=C(O)C(=O)N2CCCN2CCOCC2)cc1OC (centres unmarked) | -0.12 |
| NC(=O)c1ccc(N2CCCC2)c(NC(=O)c2cn(Cc3ccccc3)nn2)c1 | -0.05 |
| CN1c2ccccc2C(=O)NC1c1cccc(C(F)(F)F)c1 (centres unmarked) | -0.08 |
| COc1ccc2cc(C(=O)O)c(C)nc2c1 | -0.22 |
| O=C(Nc1cccc(S(=O)(=O)N2CCOCC2)c1)c1cc(-c2ccccc2)nn1-c1ccccc1 | -0.04 |
| NC(=O)Cc1ccc(NC(=O)c2cc(Br)ccc2F)cc1 | -0.04 |
| COc1cccc(CN(C(=O)CN2C(=O)c3ccccc3S2(=O)=O)C23CC4CC(CC(C4)C2)C3)c1 | -0.09 |
| O=C(O)c1cc2c(ccc3cc(Br)ccc32)oc1=O | 0.16 |
| Cc1nn(C)cc1CCN | -0.11 |
| NC(=O)c1csc(C(=O)N2CCC(COCc3ccccc3)C2)c1 (centres unmarked) | -0.01 |
| O=C(CSc1ccccc1C(=O)OCc1cc([N+](=O)[O-])cc2c1OCOC2)NC12CC3CC(CC(C3)C1)C2 | 0.15 |
| COC(=O)c1[nH]c(C)c(C(=O)/C=C(/O)C(=O)NCCN2CCOCC2)c1C | -0.01 |
| CC(NC(=O)COC(=O)c1cccnc1SCC(=O)Nc1ccc2c(c1)OCO2)C12CC3CC(CC(C3)C1)C2 (centres unmarked) | 0.06 |
| CCN(CC)c1ccc(C(=O)C(C#N)C(=O)N2CCCC2)cn1 (centres unmarked) | -0.11 |

3 structures already listed, ordered by count of non-hydrogen atoms, ascending:

| Structure (SMILES) | TSA(with NAD+) / Primary screening (TSA) / delta Tm (K) |
| --- | --- |
| Cc1nnc(CN2CCN(CC(O)COCc3ccco3)CC2)n1C (centres unmarked) | -0.13 |
| O=C1/C(=C\c2cc(Br)cc(Br)c2O)CC/C1=C\c1cc(Br)cc(Br)c1O | 0.19 |
| CC(NC(=O)COC(=O)c1cccnc1SCC(=O)Nc1ccc2c(c1)OCO2)C12CC3CC(CC(C3)C1)C2 (centres unmarked) | 0.06 |

Following part

| Structure (SMILES) | TSA(with NAD+) / Primary screening (TSA) / delta Tm (K) |
| --- | --- |
| CCOC(=O)c1sc2ncnc(N3CCCC(C(N)=O)C3)c2c1C (centres unmarked) | -0.21 |
| COC(=O)C1(CNc2ncnc3c(C)csc23)CC1 | 0.06 |
| COC(=O)CN | 0.07 |
| NC(=O)C1CCN(c2ncnc3ccccc23)CC1 | -0.28 |
| Cc1ccc(-c2csc3ncn(CCC(=O)Nc4cccc(-c5nc(C)no5)c4)c(=O)c23)cc1 | 0.16 |
| CCc1cccc2c(C(=O)COC(=O)CN3CCCCCC3=O)c[nH]c12 | -0.05 |
| Cc1ccc(-c2nnc(SCC(=O)NC(=O)NC(C)C)n2N)cc1 | -0.04 |
| Cc1ccc2[nH]c3c(c2c1)CN(c1ncccn1)CC3 | -0.18 |
| CC(O)CC(C)(C)CNC(=O)Nc1ccc(F)cc1 (centres unmarked) | -0.09 |
| Cc1[nH]c2ccc(C(=O)N3CCC(C(N)=O)CC3)cc2c1C | -0.01 |
| COCCCCCN | -0.11 |
| CC1(C)CN(CC(F)(F)F)CCN1CC(=O)NCc1ccccc1 | -0.01 |
| N#CCCC(C#N)CN1CCC(CCc2ccc(O)cc2)CC1 (centres unmarked) | -0.14 |
| CC(C)CC1CCCC(CC(C)C)N1 (centres unmarked) | -0.11 |
| NC(=O)c1cc(N2CCN(CC(=O)N3CCCCCC3)CC2)nc2ccccc12 | -0.01 |
| CC(=O)NC12CC3CC(C1)CC(C(=O)OC(C)C(=O)Nc1ccccc1-c1ccccc1)(C3)C2 (centres unmarked) | 0.02 |
| O=C(Nc1cccc2cccnc12)c1ccc2c(c1)C(=O)c1ccccc1-2 | 0.09 |
| COc1cccc(/C=C2/Oc3cc(O)ccc3C2=O)c1OC(F)F | 0.11 |
| Cc1ccc(-n2c3nc4ccccc4nc3c3c(=N)oc(C)nc32)cc1 | -0.23 |
| COc1ccc(N(C)S(=O)(=O)c2cccc(C(=O)OCc3ccc(C)cc3)c2)cc1 | 0.08 |
| COc1ccc(C(CNC(=O)CCc2nc3ccccc3[nH]2)N(C)C)cc1 (centres unmarked) | -0.04 |
| COc1ccc2nc(C)c(C(=O)NC34CC5CC(CC(C5)C3)C4)cc2c1 | -0.28 |
| COC(=O)c1ncccc1N1CCN(C(=O)CN2CCOCC2)CC1 | -0.18 |

| Structure (SMILES) | TSA(with NAD+) / Primary screening (TSA) / delta Tm (K) |
| --- | --- |
| C[C@@H](O)CCN | -0.13 |
| CC(NC(=O)COC(=O)CNC(=O)c1ccc(-c2ccccc2)cc1)C12CC3CC(CC(C3)C1)C2 (centres unmarked) | 0.07 |
| COc1ccc(C(=O)NCCc2ccc(-c3csc(C)n3)s2)cc1 | -0.09 |
| NC(=O)c1ccc(=O)n(Cc2ccn(-c3ccccc3)n2)n1 | -0.28 |
| O=C(Cn1nc(-c2ccccc2)ccc1=O)Nc1cc(-c2cccs2)nn1-c1ccccc1 | -0.08 |
| COC(=O)c1cc(NC(=O)CN2CCC(C(N)=O)CC2)cc(C(=O)OC)c1 | -0.03 |
| COc1ccc(C2=CCN(C(=O)Cn3cc(C)c4ccccc43)C2)cc1 | 0.06 |
| Cc1ccc2c(CC(=O)Nc3cc(C(N)=O)ccc3N3CCCC3)coc2c1 | -0.06 |
| CC(C)Oc1ccc(C(=O)C2=C(O)C(=O)N(CCCN3CCOCC3)C2c2ccc(F)cc2)cc1 (centres unmarked) | 0.01 |
| Nc1ccccc1-c1nc(C2CC2)n[nH]1 | -0.06 |
| Cc1cc(C)c2c(N)c(C(=O)NN=C3C4CC5CC(C4)CC3C5)sc2n1 | -0.08 |
| Cc1ccc2[nH]c(-c3cccs3)c(CCC(=O)N3CCC(C(=O)Nc4ccccc4)CC3)c2c1 | -0.04 |
| CON(C)C(=O)c1cc2c(C)nn(C)c2nc1C | -0.11 |
| Cc1csc2c(N3CC4CCCN4CC3C)ncnc12 (centres unmarked) | -0.19 |
| O=C1C(=O)N(CCOc2ccc3ccccc3c2)c2ccccc21 | -0.14 |
| O=C(NCc1nc2ccccc2[nH]1)C(O)(c1ccccc1)c1ccccc1 | -0.09 |
| Cc1cc(-c2nc3cc(F)ccc3n2C)ccc1NC(=O)C1CCCN1C(=O)C(C)C (centres unmarked) | -0.01 |
| COc1ccc(C)cc1-c1nnc(S)n1N | -0.11 |
| CC1CCC1N (centres unmarked) | -0.04 |
| CCN(C(=O)CSc1nnc(-c2ccccc2Cl)n1C1CCCC1)C1CCS(=O)(=O)C1 (centres unmarked) | -0.01 |
| COc1ccc(C(CN2CCN(C)CC2)NC(=O)OC(C)(C)C)cc1 (centres unmarked) | 0.03 |
| COc1ccc(-c2csc3nc(C)nc(N4CCN(C5CCS(=O)(=O)C5)CC4)c23)cc1OC (centres unmarked) | -0.09 |
| O=C1CCCCC(C(=O)Nc2ccc(-c3nc4ccccc4[nH]3)cc2)N1 (centres unmarked) | 0.16 |

Rewritten with tabs: 17 of the compounds above
Structure (SMILES)	TSA(with NAD+) / Primary screening (TSA) / delta Tm (K)
C[C@@H](O)CCN	-0.13
CC(NC(=O)COC(=O)CNC(=O)c1ccc(-c2ccccc2)cc1)C12CC3CC(CC(C3)C1)C2 (centres unmarked)	0.07
COc1ccc(C(=O)NCCc2ccc(-c3csc(C)n3)s2)cc1	-0.09
O=C(Cn1nc(-c2ccccc2)ccc1=O)Nc1cc(-c2cccs2)nn1-c1ccccc1	-0.08
COC(=O)c1cc(NC(=O)CN2CCC(C(N)=O)CC2)cc(C(=O)OC)c1	-0.03
COc1ccc(C2=CCN(C(=O)Cn3cc(C)c4ccccc43)C2)cc1	0.06
Cc1ccc2c(CC(=O)Nc3cc(C(N)=O)ccc3N3CCCC3)coc2c1	-0.06
Nc1ccccc1-c1nc(C2CC2)n[nH]1	-0.06
Cc1cc(C)c2c(N)c(C(=O)NN=C3C4CC5CC(C4)CC3C5)sc2n1	-0.08
Cc1ccc2[nH]c(-c3cccs3)c(CCC(=O)N3CCC(C(=O)Nc4ccccc4)CC3)c2c1	-0.04
CON(C)C(=O)c1cc2c(C)nn(C)c2nc1C	-0.11
Cc1csc2c(N3CC4CCCN4CC3C)ncnc12 (centres unmarked)	-0.19
O=C1C(=O)N(CCOc2ccc3ccccc3c2)c2ccccc21	-0.14
Cc1cc(-c2nc3cc(F)ccc3n2C)ccc1NC(=O)C1CCCN1C(=O)C(C)C (centres unmarked)	-0.01
COc1ccc(C)cc1-c1nnc(S)n1N	-0.11
CC1CCC1N (centres unmarked)	-0.04
COc1ccc(C(CN2CCN(C)CC2)NC(=O)OC(C)(C)C)cc1 (centres unmarked)	0.03
